1 substance from PMC12802937 can be followed below.

These are yes or no findings as the source states them, for the method shown. A result given as binding can be weak or reduced; the word gives no strength.

This test deals with T1, intein-WAC S4 (R630E) (human) (UniProt Q9BTA9).
T1 sequence: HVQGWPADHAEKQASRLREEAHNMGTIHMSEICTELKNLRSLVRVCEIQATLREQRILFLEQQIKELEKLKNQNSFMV
Kind of test: pull-down; 15 μg intein-WAC incubated with 10 μg RNF-MD, then chitin-agarose resin; 20 mM TRIS (pH 7.5), 300 mM sodium chloride; SDS–PAGE; both purified.

Turning to “RNF-MD S4i (D780K in RNF20) (human) (complex)”, the binding entry is on record as “binds”.
